# From the supplement of paper PMC4604168 (melanoma cell lines)
# Some of the results follow. Many values rest on one well or one pass, so single values are uncertain.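 Imaging used 1,536-well plates; nuclei positive for cleaved PARP by antibody were divided by total DNA-stained nuclei to yield the apoptosis fraction. Doses for screening kept most cells viable, and cell lines differ markedly in resting and induced cleaved-PARP levels.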
# System: IST-MEL1
# Assay: cleaved PARP positive nuclei fraction relative to DMSO control; melanoma cells; higher = more apoptosis
# Conditions: library dose: low library concentration; 72 h
row,SMILES,cleaved PARP positive nuclei fraction [%]
1,"O=c1[nH]nc(Sc2ncc([N+](=O)[O-])s2)n1-c1ccc2c(c1)OCCO2 + COc1cc2c(Oc3ccc4[nH]c(C)cc4c3F)ncnc2cc1OCCCN1CCCC1 [cediranib] (first compound 0.2 µM, partner dose 0.4 µM)",126
2,"Cc1cc(Nc2cc(N3CCN(C)CC3)nc(Sc3ccc(NC(=O)C4CC4)cc3)n2)n[nH]1 [Tozasertib] + NC(=O)Nc1cc(-c2cccc(F)c2)sc1C(=O)N[C@H]1CCCNC1 [AZD7762] (first compound 0.006 µM, partner dose 0.02 µM)",96.6
3,"Cc1cn(-c2cc(NC(=O)c3ccc(C)c(Nc4nccc(-c5cccnc5)n4)c3)cc(C(F)(F)F)c2)cn1 [nilotinib] + O=C(Nc1cccc(Cl)c1)Nc1ncc(CCNc2ncnc3ccsc23)s1 [SNS314] (first compound 0.2 µM, partner dose 0.0008 µM)",118
4,"CCCCCCCCCCCCCCCCCCOP(=O)([O-])OC1CC[N+](C)(C)CC1 [Perifosine] + CC(C)(C)c1cnc(CSc2cnc(NC(=O)C3CCNCC3)s2)o1 [SNS-032] (first compound 0.4 µM, partner dose 0.01 µM)",32.9
5,"O=C(Nc1cc(C(F)(F)F)cc(C(F)(F)F)c1)c1cc(Cl)ccc1O + NCC(=O)Nc1ccc(-n2nc(C(F)(F)F)cc2-c2ccc3c(ccc4ccccc43)c2)cc1 [OSU03012] (first compound 0.016 µM, partner dose 1 µM)",114
6,"CCCCCCCCCCCCCCCCCCOP(=O)([O-])OC1CC[N+](C)(C)CC1 [Perifosine] + O=C(O)c1ccc(-c2c[nH]c3ncc(-c4ccccc4)cc23)cc1C1CCCC1 [GSK650394] (first compound 0.4 µM, partner dose 0.16 µM)",67
7,"O=C(Nc1cc(C(F)(F)F)cc(C(F)(F)F)c1)c1cc(Cl)ccc1O + C[C@@H]1CCN(C(=O)CC#N)C[C@@H]1N(C)c1ncnc2[nH]ccc12 [CP690550] (first compound 0.016 µM, partner dose 1 µM)",34.9
8,"CC[C@]1(O)C[C@H]2CN(CCc3c([nH]c4ccccc34)[C@@](C(=O)OC)(c3cc4c(cc3OC)N(C=O)[C@H]3[C@@](O)(C(=O)OC)[C@H](OC(C)=O)[C@]5(CC)C=CCN6CC[C@]43[C@@H]65)C2)C1 [vincristine] + CO[C@@H]1[C@H](N(C)C(=O)c2ccccc2)C[C@H]2O[C@]1(C)n1c3ccccc3c3c4c(c5c6ccccc6n2c5c31)C(=O)NC4 [Midostaurin] (first compound 0.0001 µM, partner dose 0.08 µM)",91.5
9,"COc1cc([C@@H]2c3cc4c(cc3[C@@H](O[C@@H]3O[C@@H]5CO[C@@H](C)O[C@H]5[C@H](O)[C@H]3O)[C@H]3COC(=O)[C@H]23)OCO4)cc(OC)c1O [etoposide] + OCCn1cc(-c2cnc3nnn(Cc4ccc5ncccc5c4)c3n2)cn1 [PF04217903] (first compound 0.02 µM, partner dose 1 µM)",140
10,"CCCCCCCCCCCCCCCCCCOP(=O)([O-])OC1CC[N+](C)(C)CC1 [Perifosine] + C[C@@H]1CCN(C(=O)CC#N)C[C@@H]1N(C)c1ncnc2[nH]ccc12 [CP690550] (first compound 0.4 µM, partner dose 1 µM)",97.2
11,"O=C(/C=C/c1cccnc1)NCCCCC1CCN(C(=O)c2ccccc2)CC1 + Cc1ccc(NC(=O)c2cccc(N(C)C)c2)cc1NC(=O)c1ccc(O)cc1 [ZM336372] (first compound 0.01 µM, partner dose 2 µM)",69.8
12,"Cc1ccc(Nc2nccc(N(C)c3ccc4c(C)n(C)nc4c3)n2)cc1S(N)(=O)=O [Pazopanib] + COc1cc(Nc2ncc(F)c(Nc3ccc4c(n3)NC(=O)C(C)(C)O4)n2)cc(OC)c1OC [Tamatinib] (first compound 0.4 µM, partner dose 0.4 µM)",161
13,"N#CC[C@H](C1CCCC1)n1cc(-c2ncnc3[nH]ccc23)cn1 [ruxolitinib] + COc1cc(Nc2ncc(F)c(Nc3ccc4c(n3)NC(=O)C(C)(C)O4)n2)cc(OC)c1OC [Tamatinib] (first compound 1 µM, partner dose 0.4 µM)",68
14,"COc1cc([C@@H]2c3cc4c(cc3[C@@H](O[C@@H]3O[C@@H]5CO[C@@H](C)O[C@H]5[C@H](O)[C@H]3O)[C@H]3COC(=O)[C@H]23)OCO4)cc(OC)c1O [etoposide] + CN(NC(=O)CC(=O)NN(C)C(=S)c1ccccc1)C(=S)c1ccccc1 [STA4783] (first compound 0.02 µM, partner dose 0.006 µM)",183
15,"O=C(Nc1cc(C(F)(F)F)cc(C(F)(F)F)c1)c1cc(Cl)ccc1O + O=C(Nc1cccc(Cl)c1)Nc1ncc(CCNc2ncnc3ccsc23)s1 [SNS314] (first compound 0.016 µM, partner dose 0.0008 µM)",169
16,"Cc1cn(-c2cc(NC(=O)c3ccc(C)c(Nc4nccc(-c5cccnc5)n4)c3)cc(C(F)(F)F)c2)cn1 [nilotinib] + NC(=O)Nc1cc(-c2cccc(F)c2)sc1C(=O)N[C@H]1CCCNC1 [AZD7762] (first compound 0.2 µM, partner dose 0.02 µM)",1500
17,"Cc1cn(-c2cc(NC(=O)c3ccc(C)c(Nc4nccc(-c5cccnc5)n4)c3)cc(C(F)(F)F)c2)cn1 [nilotinib] + O=C(O)c1ccc(-c2c[nH]c3ncc(-c4ccccc4)cc23)cc1C1CCCC1 [GSK650394] (first compound 0.2 µM, partner dose 0.16 µM)",120
18,"O=C(/C=C/c1cccnc1)NCCCCC1CCN(C(=O)c2ccccc2)CC1 + CC(C)(C)c1cnc(CSc2cnc(NC(=O)C3CCNCC3)s2)o1 [SNS-032] (first compound 0.01 µM, partner dose 0.01 µM)",54.9
19,"Cc1cn(-c2cc(NC(=O)c3ccc(C)c(Nc4nccc(-c5cccnc5)n4)c3)cc(C(F)(F)F)c2)cn1 [nilotinib] + O=C(CCCCCCC(=O)Nc1ccccc1)NO [vorinostat] (first compound 0.2 µM, partner dose 0.08 µM)",99.6
20,"N#CC[C@H](C1CCCC1)n1cc(-c2ncnc3[nH]ccc23)cn1 [ruxolitinib] + O=C(O)c1ccc(-c2c[nH]c3ncc(-c4ccccc4)cc23)cc1C1CCCC1 [GSK650394] (first compound 1 µM, partner dose 0.16 µM)",283
21,"O=C(Nc1cc(C(F)(F)F)cc(C(F)(F)F)c1)c1cc(Cl)ccc1O + CO[C@@H]1[C@H](N(C)C(=O)c2ccccc2)C[C@H]2O[C@]1(C)n1c3ccccc3c3c4c(c5c6ccccc6n2c5c31)C(=O)NC4 [Midostaurin] (first compound 0.016 µM, partner dose 0.08 µM)",49.1
22,"N#CC[C@H](C1CCCC1)n1cc(-c2ncnc3[nH]ccc23)cn1 [ruxolitinib] + Cc1ccc(NC(=O)c2cccc(N(C)C)c2)cc1NC(=O)c1ccc(O)cc1 [ZM336372] (first compound 1 µM, partner dose 2 µM)",109
23,"N#CC[C@H](C1CCCC1)n1cc(-c2ncnc3[nH]ccc23)cn1 [ruxolitinib] + CC1(C)NC(=O)N(c2ccc([N+](=O)[O-])c(C(F)(F)F)c2)C1=O [nilutamide] (first compound 1 µM, partner dose 1 µM)",160
24,"CC[C@]1(O)C[C@H]2CN(CCc3c([nH]c4ccccc34)[C@@](C(=O)OC)(c3cc4c(cc3OC)N(C=O)[C@H]3[C@@](O)(C(=O)OC)[C@H](OC(C)=O)[C@]5(CC)C=CCN6CC[C@]43[C@@H]65)C2)C1 [vincristine] + O=C(Nc1cccc(Cl)c1)Nc1ncc(CCNc2ncnc3ccsc23)s1 [SNS314] (first compound 0.0001 µM, partner dose 0.0008 µM)",87.3
25,"Cc1cn(-c2cc(NC(=O)c3ccc(C)c(Nc4nccc(-c5cccnc5)n4)c3)cc(C(F)(F)F)c2)cn1 [nilotinib] + CC(C)(C)c1cnc(CSc2cnc(NC(=O)C3CCNCC3)s2)o1 [SNS-032] (first compound 0.2 µM, partner dose 0.01 µM)",237
26,"COc1cc([C@@H]2c3cc4c(cc3[C@@H](O[C@@H]3O[C@@H]5CO[C@@H](C)O[C@H]5[C@H](O)[C@H]3O)[C@H]3COC(=O)[C@H]23)OCO4)cc(OC)c1O [etoposide] + NC(=O)Nc1cc(-c2cccc(F)c2)sc1C(=O)N[C@H]1CCCNC1 [AZD7762] (first compound 0.02 µM, partner dose 0.02 µM)",61.6
27,"Cc1cc(Nc2cc(N3CCN(C)CC3)nc(Sc3ccc(NC(=O)C4CC4)cc3)n2)n[nH]1 [Tozasertib] + Cn1cncc1[C@@](N)(c1ccc(Cl)cc1)c1ccc2c(c1)c(-c1cccc(Cl)c1)cc(=O)n2C [tipifarnib] (first compound 0.006 µM, partner dose 0.01 µM)",49.4
28,"Cc1ccc(Nc2nccc(N(C)c3ccc4c(C)n(C)nc4c3)n2)cc1S(N)(=O)=O [Pazopanib] + Cn1cncc1[C@@](N)(c1ccc(Cl)cc1)c1ccc2c(c1)c(-c1cccc(Cl)c1)cc(=O)n2C [tipifarnib] (first compound 0.4 µM, partner dose 0.01 µM)",36

# Reprinted from above (two entries):
row,SMILES,cleaved PARP positive nuclei fraction [%]
4,"CCCCCCCCCCCCCCCCCCOP(=O)([O-])OC1CC[N+](C)(C)CC1 [Perifosine] + CC(C)(C)c1cnc(CSc2cnc(NC(=O)C3CCNCC3)s2)o1 [SNS-032] (first compound 0.4 µM, partner dose 0.01 µM)",32.9
5,"O=C(Nc1cc(C(F)(F)F)cc(C(F)(F)F)c1)c1cc(Cl)ccc1O + NCC(=O)Nc1ccc(-n2nc(C(F)(F)F)cc2-c2ccc3c(ccc4ccccc43)c2)cc1 [OSU03012] (first compound 0.016 µM, partner dose 1 µM)",114
